Earlier results, collected in patent US20240294571A1, “ANALGESIC AND ANESTHETIC PEPTIDES AND OTHER AGENTS” (The Research Foundation for The State University of New York, priority 2019, published 2024).
Not every detail of the peptide structures is certain; ends, links or a residue may be inferred. Peptide text beside a SMILES is read from it. * marks the point of attachment. Myristoyl = CCCCCCCCCCCCCC(=O)*

System: primary DRG neurons
Settings: previously shown; cited from earlier work

CCCCCCCCCCCCCC(=O)N[C@@H](CCCNC(=N)N)C(=O)N[C@@H](CCSC)C(=O)N[C@@H](CO)C(=O)N[C@@H](CCC(=O)O)C(=O)N[C@H](C(=O)N[C@@H](CCCCN)C(=O)N[C@@H](CCCNC(=N)N)C(=O)N[C@@H](CC(C)C)C(=O)N[C@@H](CC(C)C)C(=O)N[C@@H](CO)C(=O)N[C@@H](CCC(=O)O)C(=O)O)[C@@H](C)CC [AP2 inhibitor peptide, RMSEIKRLLSE (SEQ ID NO: 1)] (Myristoyl-RMSEIKRLLSE-OH; N-terminus and C-terminus assumed)
Slack channel internalization: blocks
